Assay results reported in article doi:10.1101/843821.
No constants are given. Whether binding was seen depends on the method and setting. A result given as binding can be weak or reduced; the word gives no strength. For part of these data: Binding seen in cells or lysates may run through a third protein.

Key:
[1] = biological target: His6-3×Flag fused Mmp-RpoL (Mmp-RpoL-HF) (Methanococcus maripaludis); experiment: pull-down
[2] = biological target: His6-3×Flag fused Mmp-RpoL (Mmp-RpoL-HF) (Methanococcus maripaludis); experiment: co-IP
[3] = biological target: His6-3×Flag fused Mmp-RpoL (Mmp-RpoL-HF) (Methanococcus maripaludis); experiment: tandem affinity purification

binding [1]: binds
binding [2]: binds
binding [3]: binds
B1: Mmp-aCPSF1 (enzyme, UniProt Q6LZD5 1-635)
chain: MSAEDILNEIKAAVINKAPGNAVITDVEFEGSEVVIYAKNPELFSNNLIKEFARDFRKRLAIRPDPSVLVEPDIAKDKILKIVPEDAEITNCIFDANTGEVIIESKKPGLVIGKEGSTLEDIKKAIQWAPKPVRTPPIPSDTIKAIRATMYRERADVKDILRRIGRRIHRDVRLRDDSWVRTSFLGGSREVGRTCLYHQTPESRILVDCGINIAVEDEKAFPHFDAPEFSIEEIDAVVVTHAHLDHCGFIPGLFRYGYDGPVYCTKPTRDLMTLLQKDYVDITEKEGKNVPYSSKDIKNCIKHTIPLDYGVTTDIAPAIKLTMHNAGHILGSAIAHCHVGDGLYNVAYTGDIKFEASRLLEPAVCQFPRLETLIIESTYGGYDDVLPERDETEKEFLRVIAETIARKGKAIIPVFGIGRAQELMLVLEEGYNQGIFNAPVYLDGMIWEATAIHTAYPEYLSKNMRNRIFHEGDNPFLSEVFKKVKNTNDRRNIMDSDEPGIILTTSGMLSGGPSVEYFKNLADDEKNSIVFVGYQSEGTLGRKIQKGFKEIPLMGKNGRSKAVKVNLSVHTLEGFSGHSDRKQLIKYLRKLKPIPDRILTVHGEVSKCIDLASTAYKLFKKETKAPMNLDSIRLR
